Measured values taken from PubChem BioAssay AID2685 (National Center for Advancing Translational Sciences (NCATS), 2010).
The other results are listed elsewhere or left out. Shown are side measurements of this screen, not its main read-out; they come without a call. Compounds called inactive in the main read-out are mostly missing here. The note in brackets gives the kind of curve behind each potency; many fits are weak.

Assay: qHTS Assay for Lipid Storage Modulators in Drosophila S3 Cells;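 as to cell number change: cells counted by Cell Tracker Red CMTPX staining in the red channel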
Conditions: BODIPY lipid droplet fluorescence, 18-24 h; for cell number change: measured here: cell count max response, cells fed with added oleic acid
In short: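 Drosophila S3 cells got compounds at several concentrations plus oleic acid (400 uM solution). Laser-scanning cytometry with 488 nm excitation read lipid droplets at 500-530 nm and cells at 575-640 nm. Percent activity was relative to 20 uM Triacsin C.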

[1] = measured here: lipid fluorescence (Fed channel) AC50, cells fed with added oleic acid
[2] = measured here: cell number channel AC50, cells fed with added oleic acid

| SMILES | cell number change [%] | AC50 [1] | AC50 [2] |
| --- | --- | --- | --- |
| Cc1occc1C(=O)N1CCN(c2ccc([N+](=O)[O-])cc2)CC1 | 32.4 |  |  |
| NC(=O)c1c(NC(=O)c2ccc(F)cc2)sc2c1CCC2 |  | 9.2 µM [falling, single point] |  |
| Cc1c(Nc2nc(C(F)(F)F)nc3ccccc23)c(=O)n(-c2ccccc2)n1C | 29.2 |  | 6.51 µM [falling, single point] |
| O=C(Nc1cc(Cl)ccc1N1CCOCC1)c1cc2ccccc2o1 | 16.7 | 29.1 µM [rising, single point] |  |
| COc1ccc(CNC(=O)COC(=O)c2c[nH]c(=O)[nH]c2=O)cc1OC | -0.271 | 29.1 µM [rising, single point] |  |
| Cc1ccc(-c2nn(-c3ccccc3)cc2CNCc2ccccc2)cc1 | 3.82 |  |  |
| O=C(C[n+]1ccc(Cc2ccccc2)cc1)Nc1ccccc1 | -36 |  | 3.66 µM [falling, full curve, poor fit] |
| O=C(CSc1nnc2ccc(-c3ccc(Br)cc3)nn12)NCC1CCCO1 (stereo unspecified) |  | 2.31 µM [rising, single point] |  |
| CCOC(=O)N1CCN(c2c(NCCc3ccc(OC)c(OC)c3)c(=O)c2=O)CC1 |  | 3.26 µM [rising, partial curve] | 6.51 µM [rising, single point] |
| CCCCNC(=S)Nc1ccc(OC)nc1 | -26.1 | 6.51 µM [rising, single point] | 0.651 µM [falling, single point] |
| Cc1cccc(-n2nc(CC#N)c(C#N)c2N)c1 |  | 2.59 µM [rising, partial curve] |  |
| CCOc1ccc(OCCCCN(C)C)cc1 | -12.4 | 0.116 µM [falling, full curve] |  |
| CCCCCN(C(=O)NC(=O)Nc1cccc(C)c1C)S(C)(=O)=O |  | 29.1 µM [rising, single point] |  |
| COc1ccc(NC(=O)c2oc3ccccc3c2NC(=O)C2CC2)cc1OC | -33.7 | 6.51 µM [falling, single point] | 32.6 µM [falling, single point] |
| CCOC(=O)N1CCN(C(=O)CN2C(=O)COc3ccc(C)cc32)CC1 |  | 0.13 µM [rising, full curve, poor fit] | 0.184 µM [rising, partial curve, poor fit] |
| Cc1cnc(C(=O)OCC(=O)c2ccc(C)s2)cn1 | 23.2 | 0.00461 µM [rising, full curve, poor fit] |  |
| COC(=O)c1ccccc1NC(=O)CSc1nnc(-c2cccnc2)n1N | 1.92 | 1 µM [rising, full curve] |  |
| CC1(C)Cc2c(sc(NC(=O)c3ccco3)c2C#N)C(C)(C)N1 | -22.9 | 29.1 µM [falling, single point] |  |
| O=C1NC(=Nc2ccc(Cl)cc2)SC1Cc1cccc(Cl)c1Cl (stereo unspecified) | -34.3 | 16.4 µM [falling, single point] | 20.6 µM [falling, single point] |
| O=C(Nc1ccc(F)cc1F)c1cc2ncc(Br)cn2n1 | 3.03 | 29.1 µM [falling, single point] |  |
| CCCNc1nc(Nc2ccc(C)cc2)nc(N2CCCC2)n1 | 125 |  | 29.1 µM [rising, single point] |

| SMILES | cell number change [%] | AC50 [1] | AC50 [2] |
| --- | --- | --- | --- |
| CCCC1CCC(c2ccc(OCC)cc2)=CC1=O (stereo unspecified) | 43.9 |  | 18.4 µM [rising, single point] |
| COc1ccc(/C(N)=N/OC(=O)CN(C)S(=O)(=O)c2ccccc2)cc1 | 9.61 | 23.1 µM [rising, partial curve, poor fit] |  |
| Cc1cc(C)cc(NC(=O)OCCN2CCN(Cc3ccccc3)CCC2=O)c1 | 2.05 | 0.92 µM [rising, full curve] |  |
| C=CCNc1nc(NCC)nc(N2CCOCC2)n1 | -9.17 | 0.00461 µM [falling, full curve, poor fit] |  |
| CC1Oc2ccccc2C=C1/C=N/Nc1ccc(C(=O)O)cc1 (stereo unspecified) |  |  | 0.58 µM [rising, single point] |
| CC(C)(C)[C@H]1C=C(C(N)=O)O[C@@H](OCc2ccc(CO)cc2)C1 | -21.2 | 18.4 µM [falling, single point] |  |
| COc1ccc(CN2CCC(C(=O)c3cccc(Cl)c3)CC2)cc1 | 20.8 | 6.51 µM [rising, single point] |  |
| CCOc1cc(NC(=O)c2ccco2)c(OCC)cc1NC(=O)c1ccco1 | 8.97 |  |  |
| OC(Cn1cncn1)(c1ccccc1)c1ccccc1 | 18.4 | 1.3 µM [rising, full curve] |  |
| COc1cc(C(=O)NC2CCN(CC(=O)Nc3cccc(C)c3C)CC2)cc(OC)c1OC | 27.7 | 29.1 µM [rising, single point] |  |
| O=C(c1ccc2c(c1)OCCO2)C1CCN(S(=O)(=O)c2cccc(F)c2)CC1 | -9.39 | 0.00411 µM [rising, full curve, poor fit] |  |
| CC(=O)c1sc(NC(=O)c2ccc(COc3ccccc3Cl)o2)nc1C | -18.9 |  |  |
| COc1cccc(NC(=O)CC2S/C(=N\S(=O)(=O)c3ccccc3)N(c3ccccc3)C2=O)c1 (stereo unspecified) | 10.2 | 8.2 µM [rising, partial curve] |  |
| Cn1cnc2cc(NC(=O)COc3ccccc3)ccc21 | 10.5 | 2.51 µM [rising, full curve, poor fit] |  |
| COc1ccc(NC(=O)c2cccc(F)c2)cc1Cl | 11.2 | 23.1 µM [rising, partial curve] |  |
| Cc1ccc(/C=N/NC(=O)c2cc3c(s2)CCCC3)o1 | -32.6 |  | 0.0231 µM [falling, full curve] |
| c1cnc(SCCOc2cccc3ccccc23)nc1 | 77.9 |  | 20.6 µM [rising, single point] |
| Cc1nc([N+](=O)[O-])cn1CCCCN1C(=O)c2ccccc2C1=O | 21.5 | 29.1 µM [rising, single point] |  |
| Cn1c(NC(=O)c2ccc(F)cc2)nc2ccccc21 | -3.69 |  |  |
| CN(C)c1ccc(S(=O)(=O)N2CCCCC2)cc1NC(=O)C1=NN(c2ccccc2)C(=O)CC1 | -27.2 |  | 1.84 µM [falling, full curve, poor fit] |
| Fc1ccc2c(-c3cccc(C(F)(F)F)c3)c(-c3ccccc3)ncc2c1 | 1.55 | 9.2 µM [falling, single point] | 0.164 µM [falling, full curve, poor fit] |

| SMILES | cell number change [%] | AC50 [1] | AC50 [2] |
| --- | --- | --- | --- |
| COc1ccc([N+](=O)[O-])cc1N(CC(O)CN(CC(C)C)CC(C)C)S(=O)(=O)c1ccccc1 (stereo unspecified) | -12.3 | 0.651 µM [falling, single point] |  |
| O=C(NC(=S)NC1CCSC1=O)c1ccccc1F (stereo unspecified) | 28.6 | 29.1 µM [rising, single point] | 2.31 µM [rising, single point] |
| CCCCNC(=O)C1CCN(S(=O)(=O)c2cnc[nH]2)CC1 |  | 10.3 µM [falling, partial curve] |  |
| O=C(NO)c1cc(OCC(F)(F)F)ccc1OCC(F)(F)F | 15.8 | 29.1 µM [rising, single point] |  |
| COc1ccc(S(=O)(=O)N2CCOCC2)cc1NC(=O)CCc1cc(OC)c(OC)c(OC)c1 | 2.14 |  |  |
| CCn1cc(S(=O)(=O)N2CCN(c3ccc(Cl)cc3)CC2)cn1 | 26.7 | 2.91 µM [rising, single point] |  |
| COc1ccc(OC)c(CNC(=O)C2CCN(S(C)(=O)=O)CC2)c1 | -4.45 |  | 0.82 µM [rising, single point] |
| CCC1(C)NC(=O)N(CC(=O)Nc2sc3c(c2C(N)=O)CCC3)C1=O (stereo unspecified) | 5.84 | 5.8 µM [rising, full curve] |  |
| CCOC(=O)N1CCC(N2CCN(S(=O)(=O)c3ccc(OC)cc3)CC2)CC1 | -6.62 | 0.291 µM [falling, full curve, poor fit] |  |
| COc1cc2c(cc1OC)C(C)N(C(=O)c1cccs1)CC2 (stereo unspecified) | 36.6 |  | 9.2 µM [rising, partial curve, poor fit] |
| Cc1noc(C)c1CSc1nnc2ccc3ccccc3n12 | -8.02 | 1.46 µM [rising, partial curve, poor fit] |  |
| CN(C)CCCN(C(=O)c1ccc(S(=O)(=O)N2CCc3ccccc3C2)cc1)c1nc2c(F)cccc2s1 | 40.3 | 0.501 µM [rising, single point] |  |
| CCOc1ccccc1CNC(=O)Cn1ccc2cc(S(=O)(=O)N3CCCCCC3)ccc21 | 4.58 | 29.1 µM [rising, single point] |  |
| Cc1nnc(NC(=O)C2=COCCO2)s1 | -11.2 |  | 1.64 µM [falling, partial curve] |
| COc1cc(CCC(=O)Nc2ccc(S(=O)(=O)N3CCCC3)cc2)cc(OC)c1OC | -16 | 0.651 µM [falling, single point] |  |
| CCN(CC)CCNC(=O)c1ccc(NC2=NC3CS(=O)(=O)CC3S2)cc1 (stereo unspecified) | 1.89 | 0.146 µM [rising, single point] |  |
| Cc1cc(Cl)c2oc(C(=O)NCC(C)(C)N3CCOCC3)c(C)c2c1 | -3.36 |  |  |
| COc1ccc(CCNC(=O)C2CC(c3ccccc3C(F)(F)F)=NO2)cc1 (stereo unspecified) | 1.03 | 2.06 µM [rising, partial curve, poor fit] |  |
| CC1(C)CC(=O)C=C(c2cccc(O)c2)C1 | 6.14 |  | 6.51 µM [falling, single point] |
| COc1ccccc1N1CCN(C2CCN(C(=O)COc3cccc(C)c3)CC2)CC1 |  | 0.517 µM [falling, partial curve, poor fit] | 0.146 µM [falling, full curve, poor fit] |

A different layout for 12 compounds above.
SMILES	cell number change [%]	AC50 [1]	AC50 [2]
CCCCNC(=O)C1CCN(S(=O)(=O)c2cnc[nH]2)CC1		10.3 µM [falling, partial curve]	
O=C(NO)c1cc(OCC(F)(F)F)ccc1OCC(F)(F)F	15.8	29.1 µM [rising, single point]	
COc1ccc(OC)c(CNC(=O)C2CCN(S(C)(=O)=O)CC2)c1	-4.45		0.82 µM [rising, single point]
COc1cc2c(cc1OC)C(C)N(C(=O)c1cccs1)CC2 (stereo unspecified)	36.6		9.2 µM [rising, partial curve, poor fit]
Cc1noc(C)c1CSc1nnc2ccc3ccccc3n12	-8.02	1.46 µM [rising, partial curve, poor fit]	
CCOc1ccccc1CNC(=O)Cn1ccc2cc(S(=O)(=O)N3CCCCCC3)ccc21	4.58	29.1 µM [rising, single point]	
Cc1nnc(NC(=O)C2=COCCO2)s1	-11.2		1.64 µM [falling, partial curve]
COc1cc(CCC(=O)Nc2ccc(S(=O)(=O)N3CCCC3)cc2)cc(OC)c1OC	-16	0.651 µM [falling, single point]	
Cc1cc(Cl)c2oc(C(=O)NCC(C)(C)N3CCOCC3)c(C)c2c1	-3.36		
COc1ccc(CCNC(=O)C2CC(c3ccccc3C(F)(F)F)=NO2)cc1 (stereo unspecified)	1.03	2.06 µM [rising, partial curve, poor fit]	
CC1(C)CC(=O)C=C(c2cccc(O)c2)C1	6.14		6.51 µM [falling, single point]
COc1ccccc1N1CCN(C2CCN(C(=O)COc3cccc(C)c3)CC2)CC1		0.517 µM [falling, partial curve, poor fit]	0.146 µM [falling, full curve, poor fit]
